The values below are quoted from earlier work in patent publication US20050255458A1, “Drug discovery assays based on the biology of chronic disease” (priority 2002, published 2005).

Read-outs that look alike come from different tables or passages of the source.

Data set [1] has as its system β cell. The note with it: 40 mg/kg per day for five consecutive days; cited from earlier work.
Data set [2] relates to β cell. As to conditions: cited from earlier work.

On to `CN(N=O)C(=O)N[C@H]1C(O)O[C@H](CO)[C@@H](O)[C@@H]1O` (mixture of isomers) [STZ, streptozotocin], for which, in the data set on β cell [1], the “day of first peak in β cell apoptosis” value is 5 days and the “day of second peak in β cell apoptosis” value is 11 days.
Regarding `O=P1(N(CCCl)CCCl)NCCCO1` (stereo not shown) [CY, cyclophosphamide], the figures for the “shape of curve of the sum of β cell apoptosis” value with β cell [2] (3-week old mice) and in the data set with β cell [2] (12-week mice) were “single peak” and “two peak curve”, respectively.
